Test results from article doi:10.1101/2023.09.13.555514.
Where a chain is given by its changes, count along the chain named. Where two headings read alike, the source gives them in different places. Results are given in words; binding and its absence hold for the method and conditions named. Binding seen in cells or lysates may run through a third protein. Some results given as binding are weak or reduced against the parent protein; the word gives no strength. For some of these results: Sequences can lack the tags named with a protein.

The chains behind the UniProt entries cited, without tags or fusion partners.
UniProt Q9Y4B6: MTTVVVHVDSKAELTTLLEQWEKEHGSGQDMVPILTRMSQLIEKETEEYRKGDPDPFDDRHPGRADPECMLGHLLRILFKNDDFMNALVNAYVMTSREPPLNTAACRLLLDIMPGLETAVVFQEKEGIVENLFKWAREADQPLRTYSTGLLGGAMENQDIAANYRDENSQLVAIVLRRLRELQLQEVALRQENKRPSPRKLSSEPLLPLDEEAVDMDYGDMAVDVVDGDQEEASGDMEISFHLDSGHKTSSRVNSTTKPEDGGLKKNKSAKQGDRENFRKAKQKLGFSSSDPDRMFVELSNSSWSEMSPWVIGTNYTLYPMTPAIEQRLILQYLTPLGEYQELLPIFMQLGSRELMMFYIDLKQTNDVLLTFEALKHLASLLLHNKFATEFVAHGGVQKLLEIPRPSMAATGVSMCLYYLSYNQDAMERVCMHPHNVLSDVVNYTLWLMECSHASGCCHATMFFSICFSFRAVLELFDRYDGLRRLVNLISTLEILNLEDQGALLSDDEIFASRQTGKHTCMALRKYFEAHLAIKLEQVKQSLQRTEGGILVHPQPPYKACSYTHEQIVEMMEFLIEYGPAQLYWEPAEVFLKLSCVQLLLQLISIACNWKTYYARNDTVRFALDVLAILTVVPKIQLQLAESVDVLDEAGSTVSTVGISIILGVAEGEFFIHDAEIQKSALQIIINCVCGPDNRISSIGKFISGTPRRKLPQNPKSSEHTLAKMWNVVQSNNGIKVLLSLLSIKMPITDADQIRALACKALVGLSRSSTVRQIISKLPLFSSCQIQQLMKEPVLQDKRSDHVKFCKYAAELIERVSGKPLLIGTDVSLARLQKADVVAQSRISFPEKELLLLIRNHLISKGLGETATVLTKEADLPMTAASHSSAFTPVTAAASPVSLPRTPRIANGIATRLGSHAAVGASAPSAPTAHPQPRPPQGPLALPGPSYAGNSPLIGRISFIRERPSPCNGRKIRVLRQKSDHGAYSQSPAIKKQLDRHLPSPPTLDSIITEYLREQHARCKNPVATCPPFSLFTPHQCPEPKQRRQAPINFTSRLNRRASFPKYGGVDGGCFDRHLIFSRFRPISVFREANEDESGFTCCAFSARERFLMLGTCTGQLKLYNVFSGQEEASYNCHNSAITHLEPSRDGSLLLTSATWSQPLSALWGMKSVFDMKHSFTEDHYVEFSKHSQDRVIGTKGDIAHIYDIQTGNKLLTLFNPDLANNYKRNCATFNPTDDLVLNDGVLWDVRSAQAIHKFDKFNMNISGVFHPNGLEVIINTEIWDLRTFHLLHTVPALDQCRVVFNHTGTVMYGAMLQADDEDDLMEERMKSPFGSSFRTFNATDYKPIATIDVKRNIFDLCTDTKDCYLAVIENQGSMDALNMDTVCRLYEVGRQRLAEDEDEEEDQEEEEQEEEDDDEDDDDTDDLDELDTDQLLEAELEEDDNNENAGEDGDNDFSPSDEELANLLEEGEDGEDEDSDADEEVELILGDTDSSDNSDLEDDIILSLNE
UniProt Q13619: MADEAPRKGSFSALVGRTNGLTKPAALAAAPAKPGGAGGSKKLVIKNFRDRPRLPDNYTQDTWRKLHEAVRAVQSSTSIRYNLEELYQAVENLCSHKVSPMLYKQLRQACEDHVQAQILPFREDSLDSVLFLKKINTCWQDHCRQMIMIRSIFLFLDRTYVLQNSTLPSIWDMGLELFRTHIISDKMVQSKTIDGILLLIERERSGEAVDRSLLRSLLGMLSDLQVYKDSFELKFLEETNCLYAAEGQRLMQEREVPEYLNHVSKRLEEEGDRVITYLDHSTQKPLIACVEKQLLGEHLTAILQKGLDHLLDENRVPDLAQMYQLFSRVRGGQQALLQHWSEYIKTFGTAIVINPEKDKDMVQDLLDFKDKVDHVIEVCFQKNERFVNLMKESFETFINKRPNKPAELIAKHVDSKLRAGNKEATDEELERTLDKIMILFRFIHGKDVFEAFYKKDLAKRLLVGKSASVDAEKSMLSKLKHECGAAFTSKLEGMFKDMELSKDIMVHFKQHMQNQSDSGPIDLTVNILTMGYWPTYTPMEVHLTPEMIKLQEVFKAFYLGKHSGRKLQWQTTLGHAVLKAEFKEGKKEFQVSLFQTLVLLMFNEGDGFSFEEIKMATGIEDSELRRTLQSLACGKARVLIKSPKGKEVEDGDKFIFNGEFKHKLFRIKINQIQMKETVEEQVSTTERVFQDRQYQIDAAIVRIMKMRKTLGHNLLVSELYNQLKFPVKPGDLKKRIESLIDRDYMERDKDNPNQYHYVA
UniProt Q13620: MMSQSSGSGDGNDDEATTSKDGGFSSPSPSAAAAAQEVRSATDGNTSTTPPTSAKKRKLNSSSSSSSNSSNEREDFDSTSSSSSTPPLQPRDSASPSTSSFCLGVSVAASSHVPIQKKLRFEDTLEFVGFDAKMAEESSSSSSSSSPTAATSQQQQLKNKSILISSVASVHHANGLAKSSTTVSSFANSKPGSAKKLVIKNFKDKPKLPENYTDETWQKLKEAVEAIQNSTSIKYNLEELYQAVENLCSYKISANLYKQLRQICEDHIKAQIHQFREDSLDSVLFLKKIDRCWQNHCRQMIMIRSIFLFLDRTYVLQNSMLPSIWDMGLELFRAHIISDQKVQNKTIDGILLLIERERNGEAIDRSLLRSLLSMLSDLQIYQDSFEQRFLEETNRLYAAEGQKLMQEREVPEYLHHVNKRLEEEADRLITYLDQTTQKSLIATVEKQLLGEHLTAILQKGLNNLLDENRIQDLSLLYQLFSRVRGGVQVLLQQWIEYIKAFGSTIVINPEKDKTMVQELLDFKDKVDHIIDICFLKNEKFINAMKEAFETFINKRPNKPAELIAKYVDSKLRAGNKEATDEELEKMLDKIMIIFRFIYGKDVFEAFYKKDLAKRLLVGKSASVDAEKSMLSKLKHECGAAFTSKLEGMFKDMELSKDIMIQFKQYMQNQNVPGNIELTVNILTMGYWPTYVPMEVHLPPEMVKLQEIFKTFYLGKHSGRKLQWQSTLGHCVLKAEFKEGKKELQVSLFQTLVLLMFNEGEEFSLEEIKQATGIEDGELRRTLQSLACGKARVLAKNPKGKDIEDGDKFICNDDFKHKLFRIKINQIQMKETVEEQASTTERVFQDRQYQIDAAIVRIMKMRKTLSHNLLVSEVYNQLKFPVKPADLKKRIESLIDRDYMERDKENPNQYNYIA
UniProt O95071: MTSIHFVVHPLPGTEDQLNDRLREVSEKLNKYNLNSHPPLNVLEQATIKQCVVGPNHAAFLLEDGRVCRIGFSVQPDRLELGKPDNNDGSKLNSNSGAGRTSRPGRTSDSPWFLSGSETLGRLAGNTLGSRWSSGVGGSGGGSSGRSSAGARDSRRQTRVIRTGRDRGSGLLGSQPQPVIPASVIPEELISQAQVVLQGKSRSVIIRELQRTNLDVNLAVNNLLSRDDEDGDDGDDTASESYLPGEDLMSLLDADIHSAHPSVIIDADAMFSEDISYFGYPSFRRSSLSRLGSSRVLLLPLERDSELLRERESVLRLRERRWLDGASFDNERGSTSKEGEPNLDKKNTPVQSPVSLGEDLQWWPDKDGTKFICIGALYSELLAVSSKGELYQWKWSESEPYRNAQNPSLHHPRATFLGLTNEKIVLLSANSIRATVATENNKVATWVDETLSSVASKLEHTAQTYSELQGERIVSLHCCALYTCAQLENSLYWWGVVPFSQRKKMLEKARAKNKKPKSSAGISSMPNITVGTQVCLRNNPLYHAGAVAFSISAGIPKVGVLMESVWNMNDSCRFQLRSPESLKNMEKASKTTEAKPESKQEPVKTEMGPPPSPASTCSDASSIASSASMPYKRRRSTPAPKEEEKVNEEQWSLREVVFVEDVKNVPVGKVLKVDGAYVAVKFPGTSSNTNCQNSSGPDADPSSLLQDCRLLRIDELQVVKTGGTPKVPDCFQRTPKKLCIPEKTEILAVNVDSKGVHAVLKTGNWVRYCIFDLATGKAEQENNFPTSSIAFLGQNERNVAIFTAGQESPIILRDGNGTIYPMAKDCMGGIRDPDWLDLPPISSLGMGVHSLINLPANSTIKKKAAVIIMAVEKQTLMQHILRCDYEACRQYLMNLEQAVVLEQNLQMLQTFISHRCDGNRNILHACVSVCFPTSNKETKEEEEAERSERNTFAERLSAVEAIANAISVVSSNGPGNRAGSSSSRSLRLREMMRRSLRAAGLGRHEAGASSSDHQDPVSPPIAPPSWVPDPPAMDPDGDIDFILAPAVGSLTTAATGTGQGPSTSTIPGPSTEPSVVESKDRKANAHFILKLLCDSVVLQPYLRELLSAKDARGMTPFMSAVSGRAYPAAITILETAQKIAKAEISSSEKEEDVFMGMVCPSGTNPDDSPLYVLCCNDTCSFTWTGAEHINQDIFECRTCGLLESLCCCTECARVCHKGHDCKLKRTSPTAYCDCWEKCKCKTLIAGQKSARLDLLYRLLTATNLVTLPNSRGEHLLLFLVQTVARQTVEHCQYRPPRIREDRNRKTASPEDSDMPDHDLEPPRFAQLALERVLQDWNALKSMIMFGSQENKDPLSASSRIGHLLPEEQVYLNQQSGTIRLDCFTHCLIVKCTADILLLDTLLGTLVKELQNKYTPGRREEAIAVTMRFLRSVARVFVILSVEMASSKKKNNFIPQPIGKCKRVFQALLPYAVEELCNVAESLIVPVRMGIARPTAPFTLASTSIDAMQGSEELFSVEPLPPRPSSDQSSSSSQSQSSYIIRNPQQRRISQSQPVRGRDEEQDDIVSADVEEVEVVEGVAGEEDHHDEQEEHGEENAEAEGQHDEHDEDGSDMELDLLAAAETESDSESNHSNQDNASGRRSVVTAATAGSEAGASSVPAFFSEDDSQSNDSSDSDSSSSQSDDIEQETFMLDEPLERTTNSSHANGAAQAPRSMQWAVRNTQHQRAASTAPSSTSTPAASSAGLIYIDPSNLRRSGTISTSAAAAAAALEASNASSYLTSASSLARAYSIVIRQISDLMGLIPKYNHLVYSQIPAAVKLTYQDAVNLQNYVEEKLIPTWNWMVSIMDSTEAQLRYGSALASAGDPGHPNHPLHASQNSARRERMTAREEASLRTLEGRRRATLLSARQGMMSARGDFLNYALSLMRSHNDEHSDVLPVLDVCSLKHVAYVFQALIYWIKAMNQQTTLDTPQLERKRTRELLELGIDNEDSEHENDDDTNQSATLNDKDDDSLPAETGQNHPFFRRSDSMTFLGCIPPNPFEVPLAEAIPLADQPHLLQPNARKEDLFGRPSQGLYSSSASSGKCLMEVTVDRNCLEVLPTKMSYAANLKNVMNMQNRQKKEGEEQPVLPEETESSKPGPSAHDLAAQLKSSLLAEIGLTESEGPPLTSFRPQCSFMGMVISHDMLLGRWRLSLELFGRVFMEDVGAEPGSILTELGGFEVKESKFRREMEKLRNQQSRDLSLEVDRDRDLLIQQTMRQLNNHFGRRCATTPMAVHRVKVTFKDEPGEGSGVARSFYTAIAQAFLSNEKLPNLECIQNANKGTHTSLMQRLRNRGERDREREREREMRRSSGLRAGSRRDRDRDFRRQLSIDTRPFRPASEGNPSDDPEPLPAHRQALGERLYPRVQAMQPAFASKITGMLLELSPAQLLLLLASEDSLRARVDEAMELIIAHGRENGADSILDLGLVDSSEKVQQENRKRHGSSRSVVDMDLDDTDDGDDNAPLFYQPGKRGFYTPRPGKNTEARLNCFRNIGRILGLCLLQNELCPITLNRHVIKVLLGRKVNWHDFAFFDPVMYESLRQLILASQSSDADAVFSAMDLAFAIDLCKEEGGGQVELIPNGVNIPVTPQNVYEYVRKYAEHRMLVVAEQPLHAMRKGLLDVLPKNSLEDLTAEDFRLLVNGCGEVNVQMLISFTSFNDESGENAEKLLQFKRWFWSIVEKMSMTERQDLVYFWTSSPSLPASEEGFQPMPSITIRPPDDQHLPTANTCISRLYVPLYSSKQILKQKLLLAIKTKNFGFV

T1: Flag-PLK4 full length (wild type) (human) (UniProt O00444)
T1 sequence: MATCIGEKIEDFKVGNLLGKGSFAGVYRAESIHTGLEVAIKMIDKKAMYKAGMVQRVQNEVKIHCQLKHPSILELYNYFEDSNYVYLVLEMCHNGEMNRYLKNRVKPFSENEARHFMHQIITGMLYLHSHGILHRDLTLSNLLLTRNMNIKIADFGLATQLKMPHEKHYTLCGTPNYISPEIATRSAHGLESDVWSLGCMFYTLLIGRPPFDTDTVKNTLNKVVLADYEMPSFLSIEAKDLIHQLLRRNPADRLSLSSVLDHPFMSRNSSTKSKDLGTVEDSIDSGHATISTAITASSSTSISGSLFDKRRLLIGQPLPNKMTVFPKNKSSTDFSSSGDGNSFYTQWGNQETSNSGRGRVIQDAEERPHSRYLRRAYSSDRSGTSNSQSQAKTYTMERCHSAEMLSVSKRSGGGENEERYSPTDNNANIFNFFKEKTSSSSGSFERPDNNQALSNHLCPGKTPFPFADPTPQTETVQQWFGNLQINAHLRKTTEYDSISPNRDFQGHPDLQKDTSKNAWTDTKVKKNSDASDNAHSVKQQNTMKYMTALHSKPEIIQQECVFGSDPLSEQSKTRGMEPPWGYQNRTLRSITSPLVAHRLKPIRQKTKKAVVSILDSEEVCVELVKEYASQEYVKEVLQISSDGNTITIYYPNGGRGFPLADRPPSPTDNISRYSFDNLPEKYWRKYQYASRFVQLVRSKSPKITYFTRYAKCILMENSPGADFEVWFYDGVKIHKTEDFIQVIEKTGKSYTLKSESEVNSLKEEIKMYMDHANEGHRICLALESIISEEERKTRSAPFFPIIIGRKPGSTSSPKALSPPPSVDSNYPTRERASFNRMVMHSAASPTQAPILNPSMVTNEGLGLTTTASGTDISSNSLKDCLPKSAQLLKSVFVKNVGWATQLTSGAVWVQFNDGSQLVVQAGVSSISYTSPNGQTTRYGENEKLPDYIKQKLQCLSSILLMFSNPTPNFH

T2: Flag-PLK4, immunoprecipitated and dephosphorylated with λ-phosphatase (human) (UniProt O00444)
T2 sequence (chain, dephosphorylated with λ-phosphatase): T1 sequence

T3: Flag-PLK4-AA (S285A+T289A) (human) (UniProt O00444)
T3 sequence: T1 sequence with S285A, T289A

T4: Flag-PLK4 K41R (kinase-dead) (human) (UniProt O00444)
T4 sequence: T1 sequence with K41R

B1: PLK4 (endogenous) (protein, UniProt O00444 1-970)
chain: T1 sequence

Key:
Assay in all cases: co-IP
[1] = molecular target: T1, Flag-PLK4 full length (wild type) (human)
[2] = molecular target: T1, Flag-PLK4 full length (wild type) (human); remark: listed apart in the source
[3] = molecular target: T2, Flag-PLK4, immunoprecipitated and dephosphorylated with λ-phosphatase (human)
[4] = molecular target: T3, Flag-PLK4-AA (S285A+T289A) (human)
[5] = molecular target: T4, Flag-PLK4 K41R (kinase-dead) (human)
[6] = molecular target: T1, Flag-PLK4 full length (wild type) (human); remark: listed apart in the source
[7] = molecular target: DCAF1 (endogenous) (human (endogenous in HEK293T)) (UniProt Q9Y4B6)
[8] = molecular target: DCAF1 (endogenous) (human (endogenous in HEK293T)) (UniProt Q9Y4B6); remark: listed apart in the source

Molecule | binding [1] | binding [6] | also measured
CUL4A (from UniProt Q13619 1-759) | binds |  | 
CUL4B (from UniProt Q13620 1-913) | binds |  | 
DCAF1 (endogenous) (from UniProt Q9Y4B6 1-1507) | binds |  | binding [2]: binds weakly; binding [3]: binds; binding [4]: binds; binding [5]: binds
DNA-damage binding protein 1 (DDB1) (from UniProt Q16531 1-1140) | binds | binds | 
EDD (from UniProt O95071 1-2799) |  | no binding | 
HA-DCAF1 (from UniProt Q9Y4B6 1-1507) |  | binds | 
B1 |  |  | binding [7]: binds weakly; binding [8]: binds
